The record followed here is publication PMC7862700.

By UniProt entry, the sequences of proteins in these tests, tags left out. Where a name states a change or a piece, a line headed by the entry shows the natural chain unless it says otherwise.
UniProt Q00613: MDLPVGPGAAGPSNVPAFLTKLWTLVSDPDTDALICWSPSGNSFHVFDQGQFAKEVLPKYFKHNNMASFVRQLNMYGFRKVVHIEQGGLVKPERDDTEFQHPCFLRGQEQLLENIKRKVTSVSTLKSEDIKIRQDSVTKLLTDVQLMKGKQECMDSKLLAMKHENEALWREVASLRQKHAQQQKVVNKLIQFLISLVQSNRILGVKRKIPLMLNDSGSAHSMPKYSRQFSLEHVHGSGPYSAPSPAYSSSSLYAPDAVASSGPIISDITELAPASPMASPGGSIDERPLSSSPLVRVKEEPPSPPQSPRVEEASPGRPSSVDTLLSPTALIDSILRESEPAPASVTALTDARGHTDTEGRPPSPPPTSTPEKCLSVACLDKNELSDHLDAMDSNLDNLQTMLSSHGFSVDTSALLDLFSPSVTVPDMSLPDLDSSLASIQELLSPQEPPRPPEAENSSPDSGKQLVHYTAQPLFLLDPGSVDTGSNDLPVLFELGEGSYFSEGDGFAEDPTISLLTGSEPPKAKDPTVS

Assay [1] addresses HSF1 (UniProt Q00613). As to the kind of experiment: DAPPL (digital affinity profiling via proximity ligation, sequencing). As to conditions: 10 mM Tris-HCl pH 7.5, 50 mM NaCl, 1 mM DTT, 4% glycerol, room temperature, 30 min; GST-TFs on glutathione beads, 16-mer random dsDNA library, 0.1% …; high values mean tight binding; double strand, one strand shown; scale: fold enrichment (6-mer frequency, TF over GST control).

Assay [2] concerns the target T1, ELF2 (UniProt Q15723).
T1 sequence: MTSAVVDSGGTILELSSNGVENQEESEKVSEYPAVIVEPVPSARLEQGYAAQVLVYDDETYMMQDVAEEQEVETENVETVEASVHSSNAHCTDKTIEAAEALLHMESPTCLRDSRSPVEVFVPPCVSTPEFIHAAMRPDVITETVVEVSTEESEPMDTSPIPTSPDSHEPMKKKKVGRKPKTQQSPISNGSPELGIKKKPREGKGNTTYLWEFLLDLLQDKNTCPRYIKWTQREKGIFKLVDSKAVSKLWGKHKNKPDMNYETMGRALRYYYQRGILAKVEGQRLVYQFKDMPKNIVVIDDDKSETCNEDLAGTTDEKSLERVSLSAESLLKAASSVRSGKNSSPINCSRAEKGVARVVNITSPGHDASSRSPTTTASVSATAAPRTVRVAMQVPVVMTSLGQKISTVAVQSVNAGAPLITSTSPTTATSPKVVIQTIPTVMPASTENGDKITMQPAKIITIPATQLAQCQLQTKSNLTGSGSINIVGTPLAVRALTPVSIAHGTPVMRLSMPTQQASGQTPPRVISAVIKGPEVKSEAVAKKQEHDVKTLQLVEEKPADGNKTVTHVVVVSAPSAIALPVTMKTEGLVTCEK
Described as above. Conditions: 10 mM Tris-HCl pH 7.5, 50 mM NaCl, 1 mM DTT, 4% glycerol, room temperature, 30 min; GST-TFs on glutathione beads, 16-mer random dsDNA library, 0.1% …; high values mean tight binding; double strand, one strand shown; scale: fold enrichment (6-mer frequency, TF over GST control).

The entries are a selection whose mix differs from that of the whole data set. For part of these data: At the low end of the ranking the order means little. The list shows a part of the results. For part of these data: The source does not settle which construct or isoform was used.

Consider TTGTGA, for which the binding signal was determined as 0.741 in assay [1] and 0.737 in assay [2].

Consider GGGCCA, for which the figures for the binding signal in assay [1] and in assay [2] were 0.554 and 0.641, respectively.

TCAGGT: the binding signal in assay [1] stood at 0.821; in assay [2], 0.83.

Regarding TCGGGT, the binding signal in assay [1] came to 0.631; in assay [2], 0.56.

Regarding GTAAGA, the figures for the binding signal in assay [1] and in assay [2] were 0.885 and 0.773, respectively.

As for GGTGCG, the binding signal worked out at 0.483 in assay [1] and 0.578 in assay [2].
